In paper doi:10.1101/2025.10.15.682604:
Results are given in words; binding and its absence hold for the method and conditions named. Binding seen in cells or lysates may run through a third protein. Some results given as binding are weak or reduced against the parent protein; the word gives no strength.

The chains behind the UniProt entries cited, without tags or fusion partners.
UniProt Q9UNE7: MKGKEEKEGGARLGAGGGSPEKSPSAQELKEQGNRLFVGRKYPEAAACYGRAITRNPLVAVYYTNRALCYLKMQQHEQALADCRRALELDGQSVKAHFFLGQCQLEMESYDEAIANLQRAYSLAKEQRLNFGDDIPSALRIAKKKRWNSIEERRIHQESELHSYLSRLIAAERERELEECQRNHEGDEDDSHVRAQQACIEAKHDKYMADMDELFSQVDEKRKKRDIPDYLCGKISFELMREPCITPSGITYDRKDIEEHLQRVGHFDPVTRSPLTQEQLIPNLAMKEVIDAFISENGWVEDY
UniProt P31749: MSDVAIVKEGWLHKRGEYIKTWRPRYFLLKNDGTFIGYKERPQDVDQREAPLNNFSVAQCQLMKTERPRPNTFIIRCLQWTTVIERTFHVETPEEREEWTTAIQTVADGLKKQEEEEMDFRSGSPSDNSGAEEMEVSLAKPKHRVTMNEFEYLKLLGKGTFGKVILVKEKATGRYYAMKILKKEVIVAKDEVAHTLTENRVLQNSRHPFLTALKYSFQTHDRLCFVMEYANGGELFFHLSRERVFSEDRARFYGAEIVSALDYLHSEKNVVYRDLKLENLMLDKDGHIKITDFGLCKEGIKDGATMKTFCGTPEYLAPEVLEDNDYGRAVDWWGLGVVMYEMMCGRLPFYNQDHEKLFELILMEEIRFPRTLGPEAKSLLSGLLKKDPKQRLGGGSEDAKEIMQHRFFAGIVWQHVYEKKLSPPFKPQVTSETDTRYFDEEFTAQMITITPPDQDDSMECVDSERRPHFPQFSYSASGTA

Target: CHIP (C-terminus of Hsc70-Interacting Protein), FLAG-tagged (UniProt Q9UNE7)
Experiment: co-IP

binding: binds
Substance: AKT (from UniProt P31749 1-480)
